Laboratory results from PubChem BioAssay AID2551 (National Center for Advancing Translational Sciences (NCATS), 2010).
The whole screen tested about 310,000 compounds, of which about 17,000 (5.5%) were called active. This list was built around the results that the source calls inconclusive (neither active nor inactive); the mix of calls is not that of the screen. Calls follow the shape of the dose curve; as a rule, active = well fitted inhibition curve with a large enough effect; inconclusive = small, poorly fitted or top-dose-only effect, or effect the other way; inactive = no such curve, though single readings can be large or run the other way. Potencies beside an inconclusive call are fits to weak or partial responses and may not hold up.

Sequences of proteins named here, by UniProt entry; tags and fusion partners are left off. A change or cut given only in a name is not applied to a line headed by its entry.
UniProt P51450: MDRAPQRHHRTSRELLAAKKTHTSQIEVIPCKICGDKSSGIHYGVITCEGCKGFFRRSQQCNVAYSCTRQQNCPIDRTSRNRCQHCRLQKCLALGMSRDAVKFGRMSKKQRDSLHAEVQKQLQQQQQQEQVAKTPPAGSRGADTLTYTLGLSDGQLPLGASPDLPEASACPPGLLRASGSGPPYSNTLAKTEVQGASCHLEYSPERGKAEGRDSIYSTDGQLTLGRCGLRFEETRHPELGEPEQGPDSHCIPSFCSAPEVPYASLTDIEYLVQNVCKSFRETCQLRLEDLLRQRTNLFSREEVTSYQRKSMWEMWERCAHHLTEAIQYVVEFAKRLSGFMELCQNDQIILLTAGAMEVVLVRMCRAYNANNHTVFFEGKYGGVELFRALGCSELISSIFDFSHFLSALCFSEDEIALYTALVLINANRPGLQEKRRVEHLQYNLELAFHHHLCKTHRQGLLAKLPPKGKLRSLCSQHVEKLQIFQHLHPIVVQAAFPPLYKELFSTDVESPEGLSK

biological target: Nuclear receptor ROR-gamma (Mus musculus) (UniProt P51450); experiment: qHTS for inhibitors of ROR gamma transcriptional activity; conditions: Drosophila S2 Gal4-RORgamma UAS-luciferase reporter, 20 h; activity change, negative = inhibition: at 53.6 µM (top of the series); also: nearly all actives have a fitted effect of over 60% in size
Procedure, shortened: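 Drosophila S2 cells stably expressing Gal4-DBD/mouse RORγ fusion under metallothionein promoter plus UAS-luciferase; compound 1 h, then 700 uM CuSO4 induction for 20 h at ambient temperature; inhibition read as reduced luminescence.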
% is scaled to controls: 0 for no effect and ±100 for the full control effect; potency is read from the fitted curve at half-maximal effect.

SMILES | Potency | activity change, negative = inhibition
O=C(CN(c1ccccc1)S(=O)(=O)c1ccccc1[N+](=O)[O-])NN=C1CCCCCCC1 | inconclusive: 11.2 µM [inhibitor, single point] | 
COc1cc(/C=N/NC(=S)NCCN2CCOCC2)cc(OC)c1O | inconclusive: 22.4 µM [inhibitor, single point] | 
COc1ccc(NC(=O)CNC(=O)c2nn(-c3ccc(OC)c(Cl)c3)c(=O)c3ccccc23)c(OC)c1 |  | inactive: 0.946%
COc1cc(C(=O)CCN2CCC(c3ccccc3)C2)cc(OC)c1OC (stereo not drawn) | active: 15.8 µM | 
CC(C)C(C)C |  | inactive: 3.05%
O=C1COc2ccc(C(=O)CCl)cc2N1 | inconclusive: 11.2 µM [inhibitor, single point] | 
CC(=O)N(C)C1(c2nnnn2CCOC(=O)Nc2cccc3ccccc23)CCCC1 | inconclusive: 22.4 µM [inhibitor, partial curve, poor fit] | 
CCCC(C)NC(=S)NC(=O)c1cc(S(=O)(=O)N2CCOCC2)ccc1C (stereo not drawn) | inconclusive: 28.2 µM [inhibitor, single point] | 
CCNC(=S)N/N=C1\C(=O)c2cccc3cccc1c23 | active: 3.16 µM | 
CNC(=S)N/N=C/c1c(Cl)cccc1Cl | active: 3.16 µM | 
C/C(=N\NC(=O)C1CC1)c1ccccc1Br | inconclusive: 11.2 µM [inhibitor, partial curve, poor fit] | 
Cc1ccc(C(=O)C2Oc3ccccc3C3CC(c4ccc(C)cc4)=NN23)cc1 (stereo not drawn) | inconclusive: 6.31 µM [activator, partial curve] | 
COc1cccc(C(=O)NC(=S)Nc2nnn(C)n2)c1 | active: 8.91 µM | 
Fc1ccccc1NC(=S)N1CCC(c2ccccc2)C1 (stereo not drawn) |  | inactive: -38.7%
Fc1ccccc1CNCCC(Cc1ccccc1)c1ccc2c(c1)OCO2 (stereo not drawn) | inconclusive: 35.5 µM [activator, single point] | 
C[C@@H]1ON(C2CCCCC2)[C@H]2c3nc4ccccc4n3C[C@@H]12 | inconclusive: 10 µM [inhibitor, partial curve] | 
CC(=O)c1ccc(S(=O)(=O)N2CCN(C(=O)CSc3ccc(C)c(C)c3)CC2)cc1 | inconclusive: 10 µM [activator, partial curve] | 
Cc1cc(NC(=O)CN2CCC(n3nnc4cc(C(F)(F)F)ccc43)CC2)no1 |  | inactive: 3.39%
CN(C)c1cccc2c(/C=N/O)ccc(N(C)C)c12 |  | inactive: -26%
O=c1[nH]c(SCc2nc3ccccc3n2Cc2ccccc2)nc2ccccc12 | active: 4.47 µM | 
Cc1ccccc1NC(=S)NCc1ccc2c(c1)OCO2 | active: 2.51 µM | 
CCOC(OCC)OCC | inconclusive: 0.708 µM [activator, full curve, poor fit] | 
Cc1sc2nc(CSc3cccc(C(F)(F)F)c3)[nH]c(=O)c2c1C | inconclusive: 7.08 µM [activator, partial curve] | 
COc1cc(/C=C(\C#N)c2nc3ccccc3[nH]2)cc(Br)c1OCc1ccccc1 | inconclusive: 12.6 µM [activator, partial curve] | 
O=C(O)CCCCCn1c(O)c(C=C2N=c3ccccc3=N2)sc1=S |  | inactive: -10.4%

SMILES | Potency | activity change, negative = inhibition
COc1ccc(C2CN=NC23CCCc2ccccc2C3=O)cc1 (stereo not drawn) | inconclusive: 11.2 µM [activator, single point] | 
Cc1ccccc1NC(=S)NC1CCN(Cc2ccccc2)CC1 | active: 17.8 µM | 
COc1ccccc1-c1cc(=O)c2c(O)ccc([N+](=O)[O-])c2o1 |  | inactive: 9.42%
CCN(CC)S(=O)(=O)c1cc(NC(=O)Cc2n[nH]c(=O)c3ccccc23)ccc1C | inconclusive: 11.2 µM [activator, partial curve] | 
COc1ccc(/C(C)=N/Nc2nc3ccccc3nc2C)cc1OC | active: 4.47 µM | 
Cc1ccccc1-n1c(N)cc(=O)[nH]c1=S |  | inactive: 4.75%
COc1cc(/C=N/NC(=O)CCn2c3ccccc3c3ccccc32)ccc1O | inconclusive: 6.31 µM [activator, partial curve, poor fit] | 
CSc1cccc(NC(=O)C2CCCN(S(=O)(=O)c3cccs3)C2)c1 (stereo not drawn) | inconclusive: 31.6 µM [activator, single point] | 
Oc1ccccc1C1=Nc2ccccc2N=C(c2cccs2)C1 | inconclusive: 35.5 µM [inhibitor, single point] | 
CCOC(=O)C(=Cc1ccccc1OC)C(=O)OCC | inconclusive: 35.5 µM [inhibitor, single point] | 
COC(=O)C1=CN(Cc2ccc(OC)c(OC)c2)C=C(C(=O)OC)C1c1cccc(F)c1 | inconclusive: 20 µM [activator, single point] | 
CCc1ccc(NC(=O)CSc2nc(O)cc(=O)n2C2CCCC2)cc1 | inconclusive: 17.8 µM [activator, single point] | 
CC1=NN(C(=O)c2c(Br)c(C)nn2C)C(O)(C(F)(F)F)C1 (stereo not drawn) | active: 20 µM | 
O=C(Nc1ccc(N2CCN(C(=O)c3ccccc3)CC2)cc1)c1cccs1 | inconclusive: 17.8 µM [activator, partial curve] | 
COc1ccccc1NC(=O)C1CCCN(S(=O)(=O)c2c(C)noc2C)C1 (stereo not drawn) |  | inactive: -18.3%
CN1C(=O)C(CC(=O)Nc2ccc(F)cc2)N(NC(=O)c2cccc(F)c2)C1=S (stereo not drawn) |  | inactive: -5.03%
O=C(NCCSCc1ccccc1)c1ccc(Cl)c(S(=O)(=O)N2CCOCC2)c1 | inconclusive: 8.91 µM [activator, partial curve, poor fit] | 
Cc1cccc(-n2c(-c3ccoc3C)n[nH]c2=S)c1 | active: 8.91 µM | 
CC(C)(C)c1cc(C(=O)NCc2cc(F)cc3c2OCOC3)n(Cc2ccccc2)n1 | inconclusive: 31.6 µM [inhibitor, single point] | 
CCN1CC(CN(C)Cc2cn(-c3ccc(C)cc3)nc2-c2ccc(F)cc2)CC1=O (stereo not drawn) | inconclusive: 6.31 µM [activator, full curve] | 
S=C(c1cccs1)N1CCCC1 |  | inactive: 25.4% [at 0.365 µM]
CCCCc1c(C)nc2nc(SCc3ccc(Cl)cc3)[nH]n2c1=O | inconclusive: 35.5 µM [activator, single point] | 
Cc1ccccc1-c1nc(C(=O)NCC2CCCO2)cc2c1[nH]c1ccccc12 (stereo not drawn) | inconclusive: 35.5 µM [activator, single point] | 
Cc1sc2nc3n(c(=O)c2c1C)NC(=O)CC3 | inconclusive: 0.316 µM [inhibitor, partial curve, poor fit] | 
CCN(CC)C(=O)CN(c1cc2c(cc1OC)oc1ccccc12)S(=O)(=O)c1ccccc1 |  | inactive: 2.13%

Filtered by structure: those above with a carbonyl joined to an NH by a bond outside any ring
SMILES | Potency | activity change, negative = inhibition
O=C(CN(c1ccccc1)S(=O)(=O)c1ccccc1[N+](=O)[O-])NN=C1CCCCCCC1 | inconclusive: 11.2 µM [inhibitor, single point] | 
COc1ccc(NC(=O)CNC(=O)c2nn(-c3ccc(OC)c(Cl)c3)c(=O)c3ccccc23)c(OC)c1 |  | inactive: 0.946%
CC(=O)N(C)C1(c2nnnn2CCOC(=O)Nc2cccc3ccccc23)CCCC1 | inconclusive: 22.4 µM [inhibitor, partial curve, poor fit] | 
CCCC(C)NC(=S)NC(=O)c1cc(S(=O)(=O)N2CCOCC2)ccc1C (stereo not drawn) | inconclusive: 28.2 µM [inhibitor, single point] | 
C/C(=N\NC(=O)C1CC1)c1ccccc1Br | inconclusive: 11.2 µM [inhibitor, partial curve, poor fit] | 
COc1cccc(C(=O)NC(=S)Nc2nnn(C)n2)c1 | active: 8.91 µM | 
Cc1cc(NC(=O)CN2CCC(n3nnc4cc(C(F)(F)F)ccc43)CC2)no1 |  | inactive: 3.39%
CCN(CC)S(=O)(=O)c1cc(NC(=O)Cc2n[nH]c(=O)c3ccccc23)ccc1C | inconclusive: 11.2 µM [activator, partial curve] | 
COc1cc(/C=N/NC(=O)CCn2c3ccccc3c3ccccc32)ccc1O | inconclusive: 6.31 µM [activator, partial curve, poor fit] | 
CSc1cccc(NC(=O)C2CCCN(S(=O)(=O)c3cccs3)C2)c1 (stereo not drawn) | inconclusive: 31.6 µM [activator, single point] | 
CCc1ccc(NC(=O)CSc2nc(O)cc(=O)n2C2CCCC2)cc1 | inconclusive: 17.8 µM [activator, single point] | 
O=C(Nc1ccc(N2CCN(C(=O)c3ccccc3)CC2)cc1)c1cccs1 | inconclusive: 17.8 µM [activator, partial curve] | 
COc1ccccc1NC(=O)C1CCCN(S(=O)(=O)c2c(C)noc2C)C1 (stereo not drawn) |  | inactive: -18.3%
CN1C(=O)C(CC(=O)Nc2ccc(F)cc2)N(NC(=O)c2cccc(F)c2)C1=S (stereo not drawn) |  | inactive: -5.03%
O=C(NCCSCc1ccccc1)c1ccc(Cl)c(S(=O)(=O)N2CCOCC2)c1 | inconclusive: 8.91 µM [activator, partial curve, poor fit] | 
CC(C)(C)c1cc(C(=O)NCc2cc(F)cc3c2OCOC3)n(Cc2ccccc2)n1 | inconclusive: 31.6 µM [inhibitor, single point] | 
Cc1ccccc1-c1nc(C(=O)NCC2CCCO2)cc2c1[nH]c1ccccc12 (stereo not drawn) | inconclusive: 35.5 µM [activator, single point] | 

Further entries follow:

SMILES | Potency | activity change, negative = inhibition
COc1ccc(Cc2nc3ccc(C(=O)NCc4cc(C)no4)cc3o2)cc1OC | inconclusive: 10 µM [activator, partial curve] | 
O=C(COc1ccccc1-c1ccccc1)N/N=C/c1ccc2ccccc2c1 | inconclusive: 20 µM [inhibitor, single point] | 
CCC(C)c1ccc(NC(=O)C2CCN(c3ccc(C(F)(F)F)cn3)CC2)cc1 (stereo not drawn) | inconclusive: 35.5 µM [activator, single point] | 
COc1cc(/C=C/C(=O)OCC(=O)NC(=O)NC23CC4CC(CC(C4)C2)C3)ccc1OCC#N | inconclusive: 10 µM [activator, partial curve] | 
Cn1c(=NC(=O)C2CCN(S(=O)(=O)c3cccs3)CC2)sc2ccccc21 | inconclusive: 4.47 µM [activator, full curve, poor fit] | 
CC(C(=O)Nc1cc([N+](=O)[O-])ccc1Cl)N1CCN(c2ccccc2O)CC1 (stereo not drawn) |  | inactive: -3.08%
COc1ccccc1NC(=S)NCc1ccccc1Cl | active: 8.91 µM | 
Cc1cccc(C2NS(=O)(=O)N=C2N)c1 (stereo not drawn) | inconclusive: 0.126 µM [inhibitor, full curve, poor fit] | 
CCN(CC)c1ccc(C(=O)OCC(=O)Nc2cc3oc4ccccc4c3cc2OC)cc1 |  | inactive: -14.7%
CCOc1ccc(-n2c(SCC(=O)Nc3ccc(CC)cc3)nc3n[nH]c(C)c3c2=N)cc1 | inconclusive: 11.2 µM [inhibitor, single point] | 
Cc1c(N2C(=O)/C(=C\C3CC=CCC3)SC2=S)c(=O)n(-c2ccccc2)n1C (stereo not drawn) | inconclusive: 35.5 µM [inhibitor, single point] | 
O=C(O)/C=C\C(=O)Nc1cccc(C(=O)Nc2cccc(O)c2)c1 |  | inactive: 10.3%
Cc1ccc(/C=C/C2=NN(C)C(=O)CC2)cc1 | inconclusive: 1.26 µM [activator, full curve, poor fit] | 
CCOC(=O)Cn1nc(C)c(NC(=O)COc2ccc([N+](=O)[O-])cc2)c1C |  | inactive: -12.5%
CN(c1ccccc1)S(=O)(=O)c1cc(C(=O)OCC(=O)N2CCN(C(=O)c3ccco3)CC2)ccc1Cl |  | inactive: 11.3%
CCC(=O)N1CCN(c2nc3ccccc3s2)CC1 | inconclusive: 1.26 µM [activator, partial curve] | 
CCOC(=O)C(=CNc1cccc(N)n1)C(=O)OCC | inconclusive: 35.5 µM [activator, single point] | 
CCCO/N=C1/C(=O)N(c2ccccc2)c2ccccc21 |  | inactive: 11.3%
Cn1c(=O)n(C)c2cc(S(=O)(=O)Nc3ccccc3O)ccc21 |  | inactive: 16.1%
CCC(C)(C)C1CCc2c(sc(N)c2C(N)=O)C1 (stereo not drawn) | inconclusive: 31.6 µM [activator, single point] | 
CCN(CC)CCNc1ncnc2c1sc1nc(N3CCCC3)c3c(c12)CC(C)(C)OC3 | active: 11.2 µM | 
O=C(N/N=C/c1ccccn1)c1cc(-c2ccc(Cl)s2)[nH]n1 | inconclusive: 35.5 µM [inhibitor, single point] | 
C=C(C)C1Cc2c(C)nn(-c3cccc4ccccc34)c2C1 (stereo not drawn) | active: 14.1 µM | 
